Values of other authors, collected in US20250066365A1, “Ribonucleoside Analogues Against -Sars-Cov-2” (priority 2021, published 2025).
At least one compound was matched to its structure with a doubt left.

Tests used:
COVID-19 = conditions: hospitalized patients, WHO trials; cited from earlier work
SARS-CoV-2 = conditions: cited from earlier work

CCC(CC)COC(=O)[C@H](C)N[P@](=O)(OC[C@H]1O[C@@](C#N)(c2ccc3c(N)ncnn23)[C@H](O)[C@@H]1O)Oc1ccccc1 [Remdesivir]
effect on mortality rate or hospitalization duration (COVID-19): little effect

Nc1ncnc2c1ncn2[C@@H]1O[C@H](C[C@@H](N)CC[C@H](N)C(=O)O)[C@@H](O)[C@H]1O [Sinefungin]
antiviral activity in the cell culture (in words) (SARS-CoV-2): no antiviral activity
